Some of these results come from one statement about several compounds together.
What was measured:
Format in all cases: in vivo
[1] = test system: Diabrotica balteata; assay: Example B6 Activity against Diabrotica balteata (sprayed maize seedlings); details: 12.5 ppm spray liquor, second-stage larvae, 6 days
[2] = test system: Spodoptera littoralis; assay: Example B2 Activity against Spodoptera littoralis, systemic (maize seedlings); details: maize seedlings 6 days in test solution, L1 larvae on cut leaves, 4 days
[3] = test system: Plutella xylostella; assay: Example B4 Activity against Plutella xylostella caterpillars (sprayed cabbage plants); details: 12.5 ppm spray liquor, first-stage caterpillars, 3 days
[4] = test system: Spodoptera littoralis; assay: Example B1 Activity against Spodoptera littoralis (sprayed soya bean plants); details: 12.5 ppm spray liquor, first-stage caterpillars, 3 days
[5] = test system: Heliothis virescens; assay: Example B3 Activity against Heliothis virescens (eggs on filter paper); details: 0.8 ml test solution on 0- to 24-hour-old eggs, evaluation after 6 days
[6] = test system: Tetranychus urticae; assay: Example B7 Activity against Tetranychus urticae (sprayed bean plants); details: 12.5 ppm spray liquor, mixed population, 25° C., 6 days

Measured: reduction in the pest population

CCC(C)C1OC2(C=CC1C)CC1CC(CC=C(C)C(OC3CC(OC)C(OC4CC(OC)C(NCc5ccc(OCc6ccccc6)cc5)C(C)O4)C(C)O3)C(C)C=CC=C3COC4C(O)C(C)=CC(C(=O)O1)C34O)O2 (stereo not drawn) [1.043]
more than 80%: [1] | [2] | [3] | [4] | [5] | [6]

CCC(C)C1OC2(C=CC1C)CC1CC(CC=C(C)C(OC3CC(OC)C(OC4CC(OC)C(NCc5ccc(OC)cc5O)C(C)O4)C(C)O3)C(C)C=CC=C3COC4C(O)C(C)=CC(C(=O)O1)C34O)O2 (stereo not drawn) [1.017]
more than 80%: [1] | [2] | [3] | [4] | [5] | [6]

CCC(C)C1OC2(C=CC1C)CC1CC(CC=C(C)C(OC3CC(OC)C(OC4CC(OC)C(NCc5ccccc5Br)C(C)O4)C(C)O3)C(C)C=CC=C3COC4C(O)C(C)=CC(C(=O)O1)C34O)O2 (stereo not drawn) [1.030]
more than 80%: [1] | [2] | [3] | [4] | [5] | [6]

CCC(C)[C@H]1O[C@]2(C=C[C@@H]1C)C[C@@H]1C[C@@H](C/C=C(\C)[C@@H](O[C@H]3C[C@H](OC)[C@@H](O[C@H]4C[C@H](OC)[C@H](N(CC=Cc5ccccc5)CC=Cc5ccccc5)[C@H](C)O4)[C@H](C)O3)C(C)/C=C/C=C3\CO[C@@H]4[C@H](O)C(C)=C[C@@H](C(=O)O1)[C@]34O)O2 (stereo partly drawn) [3.001]
more than 80%: [1] | [2] | [3] | [4] | [5] | [6]

CCC(C)[C@H]1O[C@]2(C=C[C@@H]1C)C[C@@H]1C[C@@H](C/C=C(\C)[C@@H](O[C@H]3C[C@H](OC)[C@@H](O[C@H]4C[C@H](OC)[C@H](NCc5cccc(OC)c5[N+](=O)[O-])[C@H](C)O4)[C@H](C)O3)C(C)/C=C/C=C3\CO[C@@H]4[C@H](O)C(C)=C[C@@H](C(=O)O1)[C@]34O)O2 (stereo partly drawn) [1.119]
more than 80%: [1] | [2] | [3] | [4] | [5] | [6]

CCC(C)[C@H]1O[C@]2(C=C[C@@H]1C)C[C@@H]1C[C@@H](C/C=C(\C)[C@@H](O[C@H]3C[C@H](OC)[C@@H](O[C@H]4C[C@H](OC)[C@H](N(C)Cc5ccc(C(=O)OC)cc5)[C@H](C)O4)[C@H](C)O3)C(C)/C=C/C=C3\CO[C@@H]4[C@H](O)C(C)=C[C@@H](C(=O)O1)[C@]34O)O2 (stereo partly drawn) [2.073]
more than 80%: [1] | [2] | [3] | [4] | [5] | [6]

CCC(C)C1OC2(C=CC1C)CC1CC(CC=C(C)C(OC3CC(OC)C(OC4CC(OC)C(NC(C)CP(=O)(OC)OC)C(C)O4)C(C)O3)C(C)C=CC=C3COC4C(O)C(C)=CC(C(=O)O1)C34O)O2 (stereo not drawn) [1.052]
more than 80%: [1] | [2] | [3] | [4] | [5] | [6]

CCC(C)C1OC2(C=CC1C)CC1CC(CC=C(C)C(OC3CC(OC)C(OC4CC(OC)C(NCc5ccc(C=Cc6ccccc6)cc5)C(C)O4)C(C)O3)C(C)C=CC=C3COC4C(O)C(C)=CC(C(=O)O1)C34O)O2 (stereo not drawn) [1.034]
more than 80%: [1] | [2] | [3] | [4] | [5] | [6]

CCC(C)C1OC2(C=CC1C)CC1CC(CC=C(C)C(OC3CC(OC)C(OC4CC(OC)C(NCCC5=C(C)CCCC5(C)C)C(C)O4)C(C)O3)C(C)C=CC=C3COC4C(O)C(C)=CC(C(=O)O1)C34O)O2 (stereo not drawn) [1.145]
more than 80%: [1] | [2] | [3] | [4] | [5] | [6]

CCC(C)[C@H]1O[C@]2(C=C[C@@H]1C)C[C@@H]1C[C@@H](C/C=C(\C)[C@@H](O[C@H]3C[C@H](OC)[C@@H](O[C@H]4C[C@H](OC)[C@H](NCc5ccc6c(c5)Cc5ccccc5-6)[C@H](C)O4)[C@H](C)O3)C(C)/C=C/C=C3\CO[C@@H]4[C@H](O)C(C)=C[C@@H](C(=O)O1)[C@]34O)O2 (stereo partly drawn) [1.156]
more than 80%: [1] | [2] | [3] | [4] | [5] | [6]

CCC(C)C1OC2(C=CC1C)CC1CC(CC=C(C)C(OC3CC(OC)C(OC4CC(OC)C(NCc5ccc(C)cc5C)C(C)O4)C(C)O3)C(C)C=CC=C3COC4C(O)C(C)=CC(C(=O)O1)C34O)O2 (stereo not drawn) [1.009]
more than 80%: [1] | [2] | [3] | [4] | [5] | [6]

CCC(C)[C@H]1O[C@]2(C=C[C@@H]1C)C[C@@H]1C[C@@H](C/C=C(\C)[C@@H](O[C@H]3C[C@H](OC)[C@@H](O[C@H]4C[C@H](OC)[C@H](NCc5ccccc5C(F)(F)F)[C@H](C)O4)[C@H](C)O3)C(C)/C=C/C=C3\CO[C@@H]4[C@H](O)C(C)=C[C@@H](C(=O)O1)[C@]34O)O2 (stereo partly drawn) [1.113]
more than 80%: [1] | [2] | [3] | [4] | [5] | [6]

CCC(C)C1OC2(C=CC1C)CC1CC(CC=C(C)C(OC3CC(OC)C(OC4CC(OC)C(NCc5ccc(F)c(F)c5F)C(C)O4)C(C)O3)C(C)C=CC=C3COC4C(O)C(C)=CC(C(=O)O1)C34O)O2 (stereo not drawn) [1.086]
more than 80%: [1] | [2] | [3] | [4] | [5] | [6]

CCC(C)C1OC2(C=CC1C)CC1CC(CC=C(C)C(OC3CC(OC)C(OC4CC(OC)C(NCc5ccc(O)cc5Cl)C(C)O4)C(C)O3)C(C)C=CC=C3COC4C(O)C(C)=CC(C(=O)O1)C34O)O2 (stereo not drawn) [1.035]
more than 80%: [1] | [2] | [3] | [4] | [5] | [6]

CCC(C)[C@H]1O[C@]2(C=C[C@@H]1C)C[C@@H]1C[C@@H](C/C=C(\C)[C@@H](O[C@H]3C[C@H](OC)[C@@H](O[C@H]4C[C@H](OC)[C@H](N(C)Cc5ccccc5C)[C@H](C)O4)[C@H](C)O3)C(C)/C=C/C=C3\CO[C@@H]4[C@H](O)C(C)=C[C@@H](C(=O)O1)[C@]34O)O2 (stereo partly drawn) [2.019]
more than 80%: [1] | [2] | [3] | [4] | [5] | [6]

CCC(C)C1OC2(C=CC1C)CC1CC(CC=C(C)C(OC3CC(OC)C(OC4CC(OC)C(NCc5c(F)cccc5Cl)C(C)O4)C(C)O3)C(C)C=CC=C3COC4C(O)C(C)=CC(C(=O)O1)C34O)O2 (stereo not drawn) [1.090]
more than 80%: [1] | [2] | [3] | [4] | [5] | [6]

CCC(C)C1OC2(C=CC1C)CC1CC(CC=C(C)C(OC3CC(OC)C(OC4CC(OC)C(NCc5c(F)c(F)c(F)c(F)c5F)C(C)O4)C(C)O3)C(C)C=CC=C3COC4C(O)C(C)=CC(C(=O)O1)C34O)O2 (stereo not drawn) [1.083]
more than 80%: [1] | [2] | [3] | [4] | [5] | [6]

CCC(C)[C@H]1O[C@]2(C=C[C@@H]1C)C[C@@H]1C[C@@H](C/C=C(\C)[C@@H](O[C@H]3C[C@H](OC)[C@@H](O[C@H]4C[C@H](OC)[C@H](N(CCC(C)(C)C)CCC(C)(C)C)[C@H](C)O4)[C@H](C)O3)C(C)/C=C/C=C3\CO[C@@H]4[C@H](O)C(C)=C[C@@H](C(=O)O1)[C@]34O)O2 (stereo partly drawn) [3.008]
more than 80%: [1] | [2] | [3] | [4] | [5] | [6]
